Article PMC4368859 (International Journal of Neuropsychopharmacology, 2014)

What was measured:
[1] = system: cocaine transporter in hCMEC/D3 cells; assay: trans-stimulation of [^3H]-cocaine exit from hCMEC/D3 cells; settings: 10 µM unlabeled compound in KH buffer after 5 minutes loading; vs control
[2] = system: [^3H]-cocaine uptake in hCMEC/D3 cells; format: cell-based, human

CN(C)CCOC(c1ccccc1)c1ccccc1 [Diphenhydramine]
trans-stimulation of [^3H]-cocaine exit (trans-efflux zero) [1]: strongly stimulated
Relative uptake of [^3H]-cocaine [2]: 8.3±0.4 %
